{"source": "PubChem BioAssay AID1259254 (NCATS, 2017)", "aim": "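Genome-wide screen for genes that prevent DNA re-replication in cancer cells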 (primary screen)", "cell system": "human HCT116 colorectal cancer cells", "reagent": "single siRNA against human genes", "time to read-out": "3 days", "detection": "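Nuclei stained with Hoechst and imaged; cell-cycle phase assigned by DNA content; G2 share scaled per plate, non-targeting siRNA 0%, GMNN siRNA 100%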", "scale": "G2 robust z-score and G2 cells, % of GMNN control: higher = more G2 cells, more excess DNA replication", "rule for the call": "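An siRNA counts as active if its G2 robust z-score lies at least 5 MADs above the screen median; here such calls match roughly 38% of GMNN control or more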", "note": "The deposit covers about 59,000 reagents; this is an unselected part. About 1,550 of them (2.6%) were called active. 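G2 share is only a proxy for re-replication; each gene was hit by three separate siRNAs, and active genes were retested.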 Reagents against one gene are numbered here. Further read-outs or replicates are left out here. Not given: the amount of reagent."}
{"target":"RHOXF1","reagent no.":1,"G2 robust z-score":-1.01,"G2 cells, % of GMNN control":-4.17,"activity call":"inactive"}
{"target":"RHOXF1","reagent no.":2,"G2 robust z-score":-0.0964,"G2 cells, % of GMNN control":2.29,"activity call":"inactive"}
{"target":"RHOXF1","reagent no.":3,"G2 robust z-score":2.01,"G2 cells, % of GMNN control":17.1,"activity call":"inactive"}
{"target":"FNDC1","reagent no.":1,"G2 robust z-score":6.36,"G2 cells, % of GMNN control":47.7,"activity call":"active"}
{"target":"FNDC1","reagent no.":2,"G2 robust z-score":-1.39,"G2 cells, % of GMNN control":-6.84,"activity call":"inactive"}
{"target":"FNDC1","reagent no.":3,"G2 robust z-score":-0.705,"G2 cells, % of GMNN control":-2,"activity call":"inactive"}
{"target":"HBP1","reagent no.":1,"G2 robust z-score":0.47,"G2 cells, % of GMNN control":6.28,"activity call":"inactive"}
{"target":"HBP1","reagent no.":2,"G2 robust z-score":0.139,"G2 cells, % of GMNN control":3.95,"activity call":"inactive"}
{"target":"HBP1","reagent no.":3,"G2 robust z-score":1.47,"G2 cells, % of GMNN control":13.3,"activity call":"inactive"}
{"target":"RPL3L","reagent no.":1,"G2 robust z-score":0.0935,"G2 cells, % of GMNN control":3.63,"activity call":"inactive"}
{"target":"RPL3L","reagent no.":2,"G2 robust z-score":2.64,"G2 cells, % of GMNN control":21.5,"activity call":"inactive"}
{"target":"RPL3L","reagent no.":3,"G2 robust z-score":0.609,"G2 cells, % of GMNN control":7.25,"activity call":"inactive"}
{"target":"ATP1A3","reagent no.":1,"G2 robust z-score":-1.46,"G2 cells, % of GMNN control":-7.28,"activity call":"inactive"}
{"target":"ATP1A3","reagent no.":2,"G2 robust z-score":-0.432,"G2 cells, % of GMNN control":-0.0696,"activity call":"inactive"}
{"target":"ATP1A3","reagent no.":3,"G2 robust z-score":15.1,"G2 cells, % of GMNN control":109,"activity call":"active"}
{"target":"NDNF","reagent no.":1,"G2 robust z-score":-0.544,"G2 cells, % of GMNN control":-0.861,"activity call":"inactive"}
{"target":"NDNF","reagent no.":2,"G2 robust z-score":-0.842,"G2 cells, % of GMNN control":-2.96,"activity call":"inactive"}
{"target":"NDNF","reagent no.":3,"G2 robust z-score":2.09,"G2 cells, % of GMNN control":17.7,"activity call":"inactive"}

Taken from above.
RPL3L #3, G2 cells, % of GMNN control = 7.25
RHOXF1 #1, G2 robust z-score = -1.01
